Source: PMC12462960
No constants are given. Whether binding was seen depends on the method and setting. Binding seen in cells or lysates may run through a third protein. Some entries that bind do so weakly or less than the wild type. For some of these results: Sequences can lack the tags named with a protein.

Protein sequences, listed by entry. Tags and fused reporters are not part of them. Residues count along the entry.
UniProt P80188, residues 21-198: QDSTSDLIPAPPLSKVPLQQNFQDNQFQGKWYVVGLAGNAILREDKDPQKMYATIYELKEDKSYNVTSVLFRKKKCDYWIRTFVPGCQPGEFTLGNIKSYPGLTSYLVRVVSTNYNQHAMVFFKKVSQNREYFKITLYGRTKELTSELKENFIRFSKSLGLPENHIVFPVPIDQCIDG

T1: F-box only protein 2 (FBXO2), endogenous in human NP cells (human (endogenous in human NP cells)) (UniProt Q9UK22)
T1 sequence: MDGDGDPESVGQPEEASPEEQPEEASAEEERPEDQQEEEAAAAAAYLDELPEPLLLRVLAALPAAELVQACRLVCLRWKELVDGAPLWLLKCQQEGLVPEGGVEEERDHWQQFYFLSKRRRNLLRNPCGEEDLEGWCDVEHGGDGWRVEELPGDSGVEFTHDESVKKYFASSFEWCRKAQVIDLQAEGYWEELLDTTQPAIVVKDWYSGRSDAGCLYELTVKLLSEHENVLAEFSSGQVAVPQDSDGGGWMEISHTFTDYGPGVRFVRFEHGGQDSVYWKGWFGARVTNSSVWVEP

T2: Flag-tagged FBXO2 (Flag-FBXO2), full length, in HEK293T cells (UniProt Q9UK22)
T2 sequence: T1 sequence

B1: F-box only protein 2 (FBXO2), endogenous in HEK293T cells (protein, UniProt Q9UK22 1-296)
chain: T1 sequence

Assays:
[1] = biological target: T1, F-box only protein 2 (FBXO2), endogenous in human NP cells (human (endogenous in human NP cells)); experiment: co-IP; endogenous co-IP in human NP cell lysate; antibody overnight, Protein A/G PLUS-Agarose 2 h at 4 °C; control IgG; immunoblot
[2] = biological target: T2, Flag-tagged FBXO2 (Flag-FBXO2), full length, in HEK293T cells; experiment: co-IP; exogenous co-IP in HEK293T lysate; Anti-Myc-Tag mAb agarose or ANTI-FLAG M2 Affinity Gel overnight; washed three times with IP buffer; immunoblot
[3] = biological target: Myc-tagged LCN2 (Myc-LCN2), in HEK293T cells (UniProt P80188); experiment: as above

Molecule | binding [2] | other results
lipocalin-2 (LCN2), endogenous in human NP cells (from UniProt P80188 21-198) |  | binding [1]: binds
lipocalin-2 (LCN2), endogenous in HEK293T cells (from UniProt P80188 21-198) | binds | 
Myc-tagged LCN2 (Myc-LCN2), in HEK293T cells (from UniProt P80188 21-198) | binds | 
B1 |  | binding [3]: binds
